# The whole screen tested about 360,000 compounds, of which about 7,500 (2.1%) were called active. Inconclusive results, whose numbers are uncertain, are shown with a selection of clear calls. The call rests on the fitted dose curve; in most records, active means well fitted inhibition curve with a large enough effect; inconclusive means small, poorly fitted or top-dose-only effect, or effect the other way; inactive means flat fitted curve, though single readings scatter. Potencies of inconclusive entries are doubtful fits and often do not repeat.
# Test: Nrf2 qHTS screen for inhibitors; further: nearly all actives have a fitted effect of over 60% in size
# Conditions: A549 ARE-Fluc reporter, luciferase luminescence, 18-24 h; activity change, negative = inhibition: at 46 µM (top of the series)
# Procedure, shortened: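 Two sequential reads on A549 ARE_Fluc cells exposed to compound for 18-24 h: a CellTiter-Fluor fluorescence read for viability, then a luciferase luminescence read for Nrf2/ARE activity.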
# On the % scale 0 is the no-effect control and ±100 the full control effect; potency means the concentration at half of the fitted maximal effect.
Compound,Potency,"activity change, negative = inhibition"
CCCOc1ccc(-c2cn3ccccc3n2)cc1[N+](=O)[O-],"inconclusive: 23.1 µM [activator, single point]",
O=C(O)/C=C/c1cn(-c2ncc(C(F)(F)F)cc2Cl)c2ccccc12,"inconclusive: 11.6 µM [falling, partial curve, poor fit]",
COC(=O)c1ccc(NC(=O)CN2C(=O)CCC2=O)cc1,"inconclusive: 29.1 µM [activator, single point]",
O=C(O)c1ccc2nc(-c3ccccc3)sc2c1,"inconclusive: 0.651 µM [activator, full curve]",
CCCCOC(=O)CSCC(=O)N1N=C(c2cccs2)CC1c1ccc(F)cc1 (stereo unspecified),,inactive: 4.45%
CC/C(=N/Nc1cccc(Cl)c1)c1cnnc(SC)n1,,inactive: 1.49%
NS(=O)(=O)c1ccc(N2N=C(c3ccc(Br)cc3)CC2c2ccc(F)cc2)cc1 (stereo unspecified),active: 18.4 µM,
COc1ccc(NC(=O)c2cccnc2N2CCCC2)cc1,"inconclusive: 6.51 µM [activator, single point]",
Cc1ccsc1C(=O)N1CC(=O)Nc2ccccc21,"inconclusive: 16.4 µM [falling, single point]",
COc1cc2c(cc1NC(=O)c1cccnc1)oc1ccccc12,"inconclusive: 23.1 µM [activator, single point]",
Cc1cc(C)n(-c2nc(NCC3CCCO3)c3c4c(sc3n2)COC(C)(C)C4)n1 (stereo unspecified),,inactive: -3.53%
Cc1ccc(OCC(=O)Nc2nonc2-c2ccc(Br)cc2)cc1C,"inconclusive: 3.26 µM [falling, full curve, poor fit]",
Cc1ccc([N+](=O)[O-])cc1N(CC(=O)Nc1ccc(S(=O)(=O)Nc2cccc(C(F)(F)F)c2)cc1)S(C)(=O)=O,active: 20.6 µM,
CN(Cc1cn(-c2ccccc2)nc1-c1ccc2c(c1)OCO2)Cc1nccn1C,"inconclusive: 25.9 µM [falling, single point]",
Cn1c(=O)n(C)c2cc(NS(=O)(=O)c3ccccc3)ccc21,"inconclusive: 23.1 µM [falling, single point]",
CC(=O)c1cc(CC=C(C)C)c(O)cc1O,"inconclusive: 0.116 µM [activator, full curve, poor fit]",
Cc1cccc(-c2ccc3c(c2)C2CC3CCN2C(=O)OCc2ccccc2)c1 (stereo unspecified),"inconclusive: 23.1 µM [activator, partial curve]",
CCOc1ccc(S(=O)(=O)NCCC(=O)NCC(c2cccs2)N(C)C)cc1 (stereo unspecified),"inconclusive: 29.1 µM [activator, single point]",
COCCCNC(=S)NNC(=O)C1CC1c1ccc(C(C)(C)C)cc1 (stereo unspecified),active: 20.6 µM,
Cn1c(/C=C(\C#N)C(N)=S)ccc1-c1ccc(Br)cc1,"inconclusive: 1.64 µM [activator, partial curve, poor fit]",
Cc1nc2ccccc2n1/N=C/c1ccc([N+](=O)[O-])s1,"inconclusive: 29.1 µM [falling, single point]",
O=C(Nc1ccccc1-c1nnn(CC(=O)N2CCCc3ccccc32)n1)c1cccc(Cl)c1,"inconclusive: 10.3 µM [falling, partial curve, poor fit]",

Compound,Potency,"activity change, negative = inhibition"
COc1ccc(C)c2sc(NC(=O)CCS(=O)(=O)c3ccccc3)nc12,,inactive: 9.62%
Cc1ccc(NC(=O)c2cc(-c3ccccc3)n[nH]2)cc1,"inconclusive: 29.1 µM [activator, single point]",
O=C(O)CCCC(=O)Nc1nc2n(n1)C(c1ccc(F)cc1)CC(c1ccc(Cl)cc1)N2 (stereo unspecified),"inconclusive: 29.1 µM [activator, partial curve, poor fit]",
CCCCN(C(=O)C1CCCC1)C1CCS(=O)(=O)C1 (stereo unspecified),"inconclusive: 0.0046 µM [falling, full curve, poor fit]",
COc1ccc(CSCC(=O)N/N=C/c2ccc(OCC(=O)N3CCCCC3)cc2)cc1,"inconclusive: 29.1 µM [falling, partial curve, poor fit]",
O=C(NC(=S)Nc1cccc(NC(=O)c2ccccc2)c1)c1cccc([N+](=O)[O-])c1,"inconclusive: 32.6 µM [falling, partial curve, poor fit]",
COCCCNC(=O)CCc1c(C)nc2c(c(C)nn2-c2ccc(C)cc2)c1C,"inconclusive: 7.31 µM [falling, partial curve, poor fit]",
CCn1c(SCC(=O)N2CCCC2)nc2ccccc2c1=O,,inactive: -20.6%
Cc1occc1C(=O)N/N=C/C=C/c1ccccc1[N+](=O)[O-],"inconclusive: 16.4 µM [activator, single point]",
O=C(CSc1nc(O)cc(=O)[nH]1)N1CCOCC1,"inconclusive: 6.51 µM [activator, single point]",
CC1CC(C)(C)Nc2ccc(N=O)cc21 (stereo unspecified),"inconclusive: 25.9 µM [falling, partial curve, poor fit]",
COc1ccccc1NC(=O)CSc1nnc(-c2ccc(C)cc2)o1,"inconclusive: 1.84 µM [activator, full curve]",
CCN(CC(=O)Nc1cc(Cl)ccc1C)C(=O)c1cc(S(=O)(=O)N2CCCCCC2)ccc1OC,"inconclusive: 29.1 µM [falling, single point]",
CCC(C)(C)NC(=O)C(c1ccc(O)cc1)N(Cc1ccco1)C(=O)CCC(=O)Nc1ccccn1 (stereo unspecified),"inconclusive: 20.6 µM [activator, single point]",
Cc1ccc(S(=O)(=O)NNC(=O)c2cnn(-c3ccc(Cl)cc3)c2C(F)(F)F)cc1,"inconclusive: 14.6 µM [falling, partial curve, poor fit]",
COc1cccc(N2C(=O)/C(=C\c3cccs3)NC2=S)c1,"inconclusive: 6.51 µM [activator, partial curve, poor fit]",
O=C(C1CCC1)N1CCN(c2ccc(Cl)cc2)CC1,"inconclusive: 7.31 µM [falling, partial curve, poor fit]",
CCc1ccc(NC(=O)Cn2nc(SC)c(S(=O)(=O)c3ccc(OC)cc3)c2N)cc1,"inconclusive: 14.6 µM [activator, partial curve]",
COc1ccc(N2CCN(C(=O)C(C)n3nc(C)c4sc5ccccc5c4c3=O)CC2)cc1 (stereo unspecified),,inactive: -7.52%
CN(Cc1ccc(Cl)s1)C(=O)CCl,,inactive: -22.1%
S=C(NCCc1ccccc1)N1CCCC1,"inconclusive: 8.2 µM [activator, partial curve]",
COc1ccc(OCCn2cc(C=O)c3ccccc32)cc1,,inactive: 0.796%

# Structural class: the compounds so far containing a CF3 group (3)
Compound,Potency,"activity change, negative = inhibition"
O=C(O)/C=C/c1cn(-c2ncc(C(F)(F)F)cc2Cl)c2ccccc12,"inconclusive: 11.6 µM [falling, partial curve, poor fit]",
Cc1ccc([N+](=O)[O-])cc1N(CC(=O)Nc1ccc(S(=O)(=O)Nc2cccc(C(F)(F)F)c2)cc1)S(C)(=O)=O,active: 20.6 µM,
Cc1ccc(S(=O)(=O)NNC(=O)c2cnn(-c3ccc(Cl)cc3)c2C(F)(F)F)cc1,"inconclusive: 14.6 µM [falling, partial curve, poor fit]",

# Additional results.

Compound,Potency,"activity change, negative = inhibition"
Clc1ccc(C=NN2CCCCCC2)cc1Cl,"inconclusive: 11.6 µM [activator, partial curve]",
O=C(Cn1nc(Cc2ccncc2)c2ccccc2c1=O)N1CCc2ccccc2C1,"inconclusive: 0.103 µM [falling, full curve, poor fit]",
O=C1c2[nH]nc(-c3ccccc3O)c2C(c2cccc(O)c2)N1Cc1ccco1 (stereo unspecified),,inactive: -12.8%
CCCCOc1ccc(C(=O)Nc2cccc(C)n2)cc1,"inconclusive: 2.31 µM [activator, partial curve]",
C=Cc1ccc(Cn2c(C)c(CNCCc3ccc(OCC)cc3)c(C(=O)O)c2C)cc1,"inconclusive: 29.1 µM [falling, single point]",
CCn1cc(C(=O)N2CCN(c3cccc(Cl)c3)CC2)c(=O)c2cc(S(=O)(=O)N3CCC(C)CC3)ccc21,active: 20.6 µM,
NNC(=O)c1cccc(S(=O)(=O)Nc2cccc(C(F)(F)F)c2)c1,,inactive: 22.3%
O=C(N/N=C/c1ccc(Br)s1)c1c[nH]c2ccccc12,"inconclusive: 2.59 µM [activator, full curve, poor fit]",
Cc1ccc(N(CC(O)Cn2c3ccccc3c3ccccc32)S(C)(=O)=O)c(C)c1 (stereo unspecified),"inconclusive: 25.9 µM [falling, single point]",
CCOC(=O)CCc1c(C)c2ccc(OCc3cc([N+](=O)[O-])ccc3OC)cc2oc1=O,"inconclusive: 2.91 µM [falling, partial curve]",
COCCn1c(C)cc(/C=C2\NC(=S)N(C)C2=O)c1C,"inconclusive: 3.66 µM [activator, full curve, poor fit]",
CCN1C(=O)c2ccc(C(=O)Nc3ccc4c(c3)OCO4)cc2C1=O,"inconclusive: 20.6 µM [activator, partial curve]",
Cn1c(=O)c(C#N)c(-c2ccc(F)cc2)c2cc(C(=O)c3cc(Cl)cc(Cl)c3O)cnc21,"inconclusive: 29.1 µM [falling, single point]",
Cn1nc(-c2ccccc2)c(CSc2ccccc2Cl)c1Cl,,inactive: 65.4%
COc1ccc(C2(C(=O)Nc3ccc(S(=O)(=O)Nc4nc(C)cc(C)n4)cc3)CCCC2)cc1OC,"inconclusive: 2.31 µM [falling, partial curve, poor fit]",
COC(=O)c1c(NS(=O)(=O)c2ccccc2)csc1C,"inconclusive: 6.51 µM [falling, full curve, poor fit]",
CC(C)c1nnc(NC(=O)CSc2nnc(-c3ccco3)o2)s1,"inconclusive: 9.2 µM [activator, partial curve]",
C=CCSc1nnc(-c2cc(C(C)(C)C)nn2Cc2ccc(F)cc2)n1C,"inconclusive: 3.26 µM [falling, partial curve, poor fit]",
O=C(/C=C/c1ccc(F)cc1)NC(=S)NC1CCCCC1,active: 11.6 µM,
Cc1ccc(-c2n[nH]c(=S)n2/N=C/C=C\c2ccccc2[N+](=O)[O-])cc1,"inconclusive: 32.6 µM [falling, partial curve, poor fit]",
CCOC(=O)N1CCN(C(=O)Nc2ccc3oc(C)nc3c2)CC1,,inactive: -3.08%
COc1ccccc1-c1nnc(SCC(=O)Nc2ccc(S(N)(=O)=O)cc2)n1N,"inconclusive: 13 µM [activator, partial curve, poor fit]",

# From PubChem BioAssay AID504444 (National Center for Advancing Translational Sciences (NCATS), 2011)
